Test results reported in PMC5577129.
Results are given in words; binding and its absence hold for the method and conditions named. Binding can be weak; no strength is given. For part of these data: Binding seen in cells or lysates may run through a third protein. For part of these data: Sequences can lack the tags named with a protein.

The chains behind the UniProt entries cited, without tags or fusion partners. Where a name states a change or a piece, a line headed by the entry shows the natural chain unless it says otherwise.
UniProt Q5Q0E6: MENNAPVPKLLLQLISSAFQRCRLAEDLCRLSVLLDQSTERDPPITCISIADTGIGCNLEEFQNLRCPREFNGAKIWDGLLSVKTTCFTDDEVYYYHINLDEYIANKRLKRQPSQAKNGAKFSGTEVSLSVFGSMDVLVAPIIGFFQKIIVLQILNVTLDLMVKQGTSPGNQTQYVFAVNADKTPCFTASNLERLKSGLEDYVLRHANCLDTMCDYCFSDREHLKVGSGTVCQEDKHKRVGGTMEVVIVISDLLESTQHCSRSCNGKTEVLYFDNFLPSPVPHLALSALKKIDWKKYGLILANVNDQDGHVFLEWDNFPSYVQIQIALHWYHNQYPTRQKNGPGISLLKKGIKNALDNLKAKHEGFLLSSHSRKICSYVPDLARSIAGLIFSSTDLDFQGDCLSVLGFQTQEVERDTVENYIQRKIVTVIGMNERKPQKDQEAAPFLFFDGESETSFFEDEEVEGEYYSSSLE

Key:
[1] = biological target: T1, AtSPO11-2 (Arabidopsis thaliana) (UniProt Q9M4A1); assay: two-hybrid; Gal4 vector system (Clontech), pGBKT7 and pGADT7, yeast AH109; growth on SD/-Trp-Leu-His-Ade plates, 3 to 7 days, 30 °C; cells serially diluted
T1 sequence: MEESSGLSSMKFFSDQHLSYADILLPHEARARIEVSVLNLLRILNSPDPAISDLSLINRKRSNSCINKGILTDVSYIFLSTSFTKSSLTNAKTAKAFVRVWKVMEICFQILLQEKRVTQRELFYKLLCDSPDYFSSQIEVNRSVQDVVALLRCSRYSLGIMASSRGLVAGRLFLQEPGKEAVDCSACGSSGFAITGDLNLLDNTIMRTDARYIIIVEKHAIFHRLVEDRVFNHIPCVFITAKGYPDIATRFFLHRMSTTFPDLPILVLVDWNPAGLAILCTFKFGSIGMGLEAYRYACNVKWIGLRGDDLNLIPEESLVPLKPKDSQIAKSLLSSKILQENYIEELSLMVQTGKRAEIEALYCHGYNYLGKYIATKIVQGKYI

[2] = biological target: T2, AtSPO11-1 (Arabidopsis thaliana) (UniProt Q9M4A2); assay: as above
T2 sequence: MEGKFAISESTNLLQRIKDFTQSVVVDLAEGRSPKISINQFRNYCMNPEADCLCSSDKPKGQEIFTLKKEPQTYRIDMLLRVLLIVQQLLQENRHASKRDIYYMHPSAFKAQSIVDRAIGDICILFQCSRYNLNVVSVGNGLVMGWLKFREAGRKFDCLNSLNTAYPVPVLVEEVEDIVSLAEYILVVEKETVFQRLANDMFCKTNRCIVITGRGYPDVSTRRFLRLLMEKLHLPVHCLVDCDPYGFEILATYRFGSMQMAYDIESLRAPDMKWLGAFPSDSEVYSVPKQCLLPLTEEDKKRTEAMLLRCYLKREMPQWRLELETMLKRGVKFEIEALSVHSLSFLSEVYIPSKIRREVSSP

[3] = biological target: T2, AtSPO11-1 (Arabidopsis thaliana); assay: yeast three-hybrid; pBridge vector system (Clontech); bridge protein AtPRD1-A (1-388 aa) expressed; growth in SD/-Leu-Trp-His-Met medium, 5 to 8 days, 30 °C
[4] = biological target: T2, AtSPO11-1 (Arabidopsis thaliana); assay: yeast three-hybrid; pBridge vector system (Clontech); bridge protein AtPRD1-A (1-388 aa) not expressed; growth in SD/-Leu-Trp-His-Ade medium
[5] = biological target: T3, AtSPO11-1 (BiFC fusion) (Arabidopsis thaliana) (UniProt Q9M4A2); assay: split reporter; BiFC, pSPYNE-35S and pSPYCE-35S, onion epidermal cells, gene gun; confocal microscopy 16–24 h after transformation
T3 sequence: T2 sequence

[6] = biological target: T4, AtSPO11-2 (BiFC fusion) (Arabidopsis thaliana) (UniProt Q9M4A1); assay: as above
T4 sequence: T1 sequence

[7] = biological target: MTOPVIB (BiFC fusion) (Arabidopsis thaliana) (UniProt Q5Q0E6); assay: as above
[8] = biological target: MTOPVIB (Arabidopsis thaliana) (UniProt Q5Q0E6); assay: two-hybrid; Gal4 vector system (Clontech), pGBKT7 and pGADT7, yeast AH109; growth on SD/-Trp-Leu-His-Ade plates, 3 to 7 days, 30 °C; cells serially diluted
[9] = biological target: MTOPVIB (Arabidopsis thaliana) (UniProt Q5Q0E6); assay: yeast three-hybrid; pBridge vector system (Clontech); bridge protein AtPRD1-A (1-388 aa) expressed; growth in SD/-Leu-Trp-His-Met medium, 5 to 8 days, 30 °C
[10] = biological target: MTOPVIB (Arabidopsis thaliana) (UniProt Q5Q0E6); assay: yeast three-hybrid; pBridge vector system (Clontech); bridge protein AtPRD1-A (1-388 aa) not expressed; growth in SD/-Leu-Trp-His-Ade medium

For MTOPVIB (from UniProt Q5Q0E6-3), the binding [1] was “binds”, the binding [2] was “binds” and the binding [3] was “binds”. The binding [4] was “binds”.

“MTOPVIB (BiFC fusion) (from UniProt Q5Q0E6-3)” was tested, and the binding [5] was “binds” and the binding [6] was “binds”.

B1: AtPRD1 (BiFC fusion) (protein, UniProt O23277 1-1330)
chain: MFFQHSQLQNSDHLLHESMADSNHQSLSPPCANGHRSTISLRDDQGGTFCLICFSNLVSDPRIPTVHVSYALHQLSIAISEPIFLRTLLSSHIHFLVSPLVHALSSIDDAPIAIQIMDMISLLCSVEESSIGEDFVERISDQLSSGALGWSRRQLHMLHCFGVLMSCENININSHIRDKEALVCQLVEGLQLPSEEIRGEILFALYKFSALQFTEQNVDGIEVLSLLCPKLLCLSLEALAKTQRDDVRLNCVALLTILAQQGLLANSHSNSASSMSLDEVDDDPMQTAENVAARPCLNVLFAEAIKGPLLSTDSEVQIKTLDLIFHYISQESTPSKQIQVMVEENVADYIFEILRLSECKDQVVNSCLRVLDLFSLAEHSFRKRLVIGFPSVIRVLHYVGEVPCHPFQIQTLKLISSCISDFPGIASSSQVQEIALVLKKMLERYYSQEMGLFPDAFAIICSVFVSLMKTPSFGETADVLTSLQESLRHSILASLSLPEKDSTQILHAVYLLNEVYVYCTASTSINKTICIELRHCVIDVCTSHLLPWFLSDVNEVNEEATLGIMETFHSILLQNSDIQAKEFAELLVSADWFSFSFGCLGNFCTDNMKQRIYLMLSSLVDILLEQKTGSHIRDALHCLPSDPQDLLFLLGQASSNNQELASCQSAALLIFHTSSIYNDRLADDKLVLASLEQYIILNKTSLICAISDSPALLNLVNLYGLCRSLQNERYQISYSLEAERIIFHLLNEYEWDLGSINIHLESLKWLFQQESISKSLIYQIQKISRNNLIGNEVHNVYGDGRQRSLTYWFAKLISEGDNYAATLLVNLLTQLAEKEEQENDVISILNLMNTIVSIFPTASNNLSMNGIGSVIHRLVSGFSNSSLGTSFRTLLLLVFNILTSVQPAVLMIDESWYAVSIKLLNFLSLRDTAIKQNHEDMVVIGILSLVLYHSSDGALVEASRNIVSNSYLVSAINTVVDVACSKGPALTQCQDETNIGEALAFTLLLYFFSLRSLQIVLAGAVDWQTFFGTSTSLETLPVVCIHCHNLCRLMHFGAPQIKLIASYCLLELLTGLSEQVDIKKEQLQCSSSYLKSMKAVLGGLVFCDDIRVATNSALCLSMILGWEDMEGRTEMLKTSSWYRFIAEEMSVSLAMPCSASSTYVNHHKPAVYLTVAMLRLKNKPVWLRTVFDESCISSMIQNLNGINISREIVILFRELMQAELLNSQQVTKLDRAFQECRKQMHRNGTRDETVEEQVQRKIPSIHDHSEFCNYLVHLMVSNSFGHPSESETYTQKKKQILDEMEQFSELISTREGRVSPIQEETRQMQTERIV
In the case of B1, the binding [7] is reported as “binds”.

B2: AtPRD1-A (1–388 aa) (domain or fragment, UniProt O23277 1-388)
chain: MFFQHSQLQNSDHLLHESMADSNHQSLSPPCANGHRSTISLRDDQGGTFCLICFSNLVSDPRIPTVHVSYALHQLSIAISEPIFLRTLLSSHIHFLVSPLVHALSSIDDAPIAIQIMDMISLLCSVEESSIGEDFVERISDQLSSGALGWSRRQLHMLHCFGVLMSCENININSHIRDKEALVCQLVEGLQLPSEEIRGEILFALYKFSALQFTEQNVDGIEVLSLLCPKLLCLSLEALAKTQRDDVRLNCVALLTILAQQGLLANSHSNSASSMSLDEVDDDPMQTAENVAARPCLNVLFAEAIKGPLLSTDSEVQIKTLDLIFHYISQESTPSKQIQVMVEENVADYIFEILRLSECKDQVVNSCLRVLDLFSLAEHSFRKRLVIG
For B2, the binding [8] was “binds”.

B3: AtPRD1-A (1–388 aa) (BiFC fusion) (domain or fragment, UniProt O23277 1-388)
chain: B2 chain
In the case of B3, the binding [7] is reported as “binds”.

B4: AtPRD1-D (963–1109 aa) (domain or fragment, UniProt O23277 963-1109)
chain: VSNSYLVSAINTVVDVACSKGPALTQCQDETNIGEALAFTLLLYFFSLRSLQIVLAGAVDWQTFFGTSTSLETLPVVCIHCHNLCRLMHFGAPQIKLIASYCLLELLTGLSEQVDIKKEQLQCSSSYLKSMKAVLGGLVFCDDIRVA
B4 was tested, and the binding [8] was “binds weakly”.

B5: AtSPO11-1 (protein, UniProt Q9M4A2 1-362)
chain: T2 sequence
B5 was tested, and the binding [9] was “binds” and the binding [10] was “binds”.

B6: AtPRD1-B (389–812 aa) (domain or fragment, UniProt O23277 389-812)
chain: FPSVIRVLHYVGEVPCHPFQIQTLKLISSCISDFPGIASSSQVQEIALVLKKMLERYYSQEMGLFPDAFAIICSVFVSLMKTPSFGETADVLTSLQESLRHSILASLSLPEKDSTQILHAVYLLNEVYVYCTASTSINKTICIELRHCVIDVCTSHLLPWFLSDVNEVNEEATLGIMETFHSILLQNSDIQAKEFAELLVSADWFSFSFGCLGNFCTDNMKQRIYLMLSSLVDILLEQKTGSHIRDALHCLPSDPQDLLFLLGQASSNNQELASCQSAALLIFHTSSIYNDRLADDKLVLASLEQYIILNKTSLICAISDSPALLNLVNLYGLCRSLQNERYQISYSLEAERIIFHLLNEYEWDLGSINIHLESLKWLFQQESISKSLIYQIQKISRNNLIGNEVHNVYGDGRQRSLTYWFAKL
B6 was tested, and the binding [8] was “no binding”.

B7: AtPRD1-E (1110–1330 aa) (domain or fragment, UniProt O23277 1110-1330)
chain: TNSALCLSMILGWEDMEGRTEMLKTSSWYRFIAEEMSVSLAMPCSASSTYVNHHKPAVYLTVAMLRLKNKPVWLRTVFDESCISSMIQNLNGINISREIVILFRELMQAELLNSQQVTKLDRAFQECRKQMHRNGTRDETVEEQVQRKIPSIHDHSEFCNYLVHLMVSNSFGHPSESETYTQKKKQILDEMEQFSELISTREGRVSPIQEETRQMQTERIV
For B7, the binding [8] was “no binding”.

B8: AtPRD1-C (813–962 aa) (domain or fragment, UniProt O23277 813-962)
chain: ISEGDNYAATLLVNLLTQLAEKEEQENDVISILNLMNTIVSIFPTASNNLSMNGIGSVIHRLVSGFSNSSLGTSFRTLLLLVFNILTSVQPAVLMIDESWYAVSIKLLNFLSLRDTAIKQNHEDMVVIGILSLVLYHSSDGALVEASRNI
For B8, the binding [8] was “no binding”.
